The whole screen tested about 400,000 compounds, of which about 13,000 (3.2%) were called active. Inconclusive means that the source gave no clear call. Such entries were picked first, then a sample of the others. Calls follow the shape of the dose curve; as a rule, active = well fitted cell-killing curve with a large enough effect; inconclusive = small, poorly fitted or top-dose-only effect, or effect the other way; inactive = flat fitted curve, though single readings scatter. A potency beside an inconclusive call is a rough fit, not a confirmed value.
Assay: qHTS assay for MDR1-selective chemotherapeutics: Primary screen using the drug-selected MDR subline cells KB-V1; also: nearly all actives have a fitted effect of over 60% in size
Details: KB-V1 MDR cells viability, CellTiter-Glo, 72 h; series mostly up to 46.1 µM
In short: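 In this primary screen, KB-V1 cells overexpressing P-gp are incubated with library compounds (lowest to highest concentration) for 72 h at 37 degrees C before a luminescent ATP viability read.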
Potency is read from the fitted curve at half-maximal effect.

SMILES	Potency
CCCCc1nnc(NC(=O)CCc2ccccc2)s1	inconclusive: 29.1 µM [cytotoxic, single point]
COc1cc(-c2ccc3ncnc(N(C)Cc4csc(C)n4)c3c2)cc(OC)c1OC	inconclusive: 7.31 µM [cytotoxic, partial curve]
CC(C)C(OC(=O)c1cc2c(s1)CCCCC2)C(=O)NC(N)=O (centres undefined)	inconclusive: 20.6 µM [cytotoxic, partial curve, poor fit]
c1ccc(Cn2c(CNc3nc4ccccc4n3CCN3CCCCC3)nc3ccccc32)cc1	inconclusive: 16.4 µM [cytotoxic, single point]
Cc1ccc(N2C(=O)C3CCC(C)(C2=O)C3(C)C)cc1 (centres undefined)	inconclusive: 2.06 µM [rising, partial curve, poor fit]
Cc1ccc2c(c1)cc(CN(Cc1cccs1)C(=O)c1ccco1)c1nnnn12	inconclusive: 23.1 µM [cytotoxic, single point]
O=C1CCSc2c1ccc1ccccc21	inactive
COc1ccc(C(O)c2cnc(C)n2Cc2ccccc2)cc1 (centres undefined)	inactive
COCCNC(=O)/C(C#N)=C/c1ccc2c(c1)OCO2	inconclusive: 20.6 µM [rising, single point]
CC1CCCC(C)N1CCCNC(=O)C1CCCN(S(=O)(=O)N2CCCCC2)C1 (centres undefined)	inactive
Cc1cccnc1NC(=O)CCNC(=O)c1ccccc1Cl	inconclusive: 7.31 µM [cytotoxic, partial curve]
CC1=C(C(=O)Nc2ccc(C)cc2C)C(c2ccccc2C)n2ncnc2N1 (centres undefined)	inconclusive: 7.31 µM [rising, partial curve]
Cc1cc2c(ncn2Cc2ccccc2)c([N+](=O)[O-])c1C	inconclusive: 20.6 µM [cytotoxic, single point]
CCCCCc1ccc(OCCC[n+]2ccccc2)c(CCCCC)c1	inactive
CN(C)S(=O)(=O)c1cccc(C(=O)N2CCN(Cc3ccccc3)CC2)c1	inconclusive: 20.6 µM [cytotoxic, single point]
Cc1ccc(C(NC(=O)N2CCCC2)C(Cl)Cl)cc1F (centres undefined)	inconclusive: 29.1 µM [cytotoxic, partial curve, poor fit]
C[n+]1cccc(C2C(C#N)=C(N)Oc3c2ccc2ccccc32)c1 (centres undefined)	inconclusive: 11.6 µM [cytotoxic, partial curve, poor fit]
CSCCC(NC(=O)COc1ccccc1)C(=O)OCCOc1ccc(C)cc1 (centres undefined)	inconclusive: 18.4 µM [rising, single point]
C=COCCNC(=S)Nc1cccc(Cl)c1	inactive
CN(CCc1ccccc1)C(=O)CCc1nnc(Cc2ccc3c(c2)OCO3)o1	inconclusive: 18.4 µM [cytotoxic, single point]
Cc1c(CCC(=O)O)c(=O)oc2cc3occ(-c4ccc(Br)cc4)c3cc12	inactive
Cc1[nH]c(=O)c(C(=O)c2ccccc2O)cc1C(=O)O	inconclusive: 16.4 µM [rising, single point]

Filtered by structure, the compounds so far containing a thiophene ring, fused or not
SMILES	Potency
CC(C)C(OC(=O)c1cc2c(s1)CCCCC2)C(=O)NC(N)=O (centres undefined)	inconclusive: 20.6 µM [cytotoxic, partial curve, poor fit]
Cc1ccc2c(c1)cc(CN(Cc1cccs1)C(=O)c1ccco1)c1nnnn12	inconclusive: 23.1 µM [cytotoxic, single point]

The results go on:

SMILES	Potency
Cc1ccc2[nH]cc(C(=O)NCc3cccs3)c(=O)c2c1	inconclusive: 32.6 µM [cytotoxic, single point]
c1ccc(-n2cnc3cc(NCc4ccco4)ccc32)cc1	inconclusive: 20.6 µM [cytotoxic, partial curve, poor fit]
CCn1c(SCc2ccc(C(=O)Nc3cc(C)cc(C)c3)cc2)nnc1-c1ccncc1	inconclusive: 14.6 µM [cytotoxic, single point]
O=C(Nc1nc2ccc(F)cc2s1)C1CCN(S(=O)(=O)c2cc([N+](=O)[O-])ccc2Cl)CC1	active: 14.6 µM
COc1ccccc1CNC(=O)CSC1=NCCS1	inactive
COc1cc(C(=O)NCC(c2cccnc2)N2CCN(c3ccc(F)cc3)CC2)cc(OC)c1OC (centres undefined)	inconclusive: 23.1 µM [cytotoxic, partial curve]
Cc1ccc(-n2cccn2)c(CN2CCCC(C(=O)c3sccc3C)C2)c1 (centres undefined)	inconclusive: 6.51 µM [cytotoxic, partial curve]
COc1ccccc1CNC(=O)CC(NS(=O)(=O)c1ccc(C)cc1)c1ccco1 (centres undefined)	inconclusive: 10.3 µM [cytotoxic, partial curve, poor fit]
Cc1cc(-c2n[nH]c(=S)n2-c2ccccc2)nn1C	inactive
COc1ccc(C(=O)N2CCc3ccccc32)cc1S(=O)(=O)N1CCOCC1	inactive
C#C[C@]1(O)CC[C@H]2[C@@H]3CCc4cc(OC)ccc4[C@H]3CC[C@@]21C	inactive
COc1ccc(CNc2nc3c(c(=O)n(Cc4ccc(Cl)cc4)c(=O)n3C)n2C)cc1	active: 16.4 µM
O=C(C(=O)N1CCN(C(=O)OCc2ccccc2)CC1)c1cccnc1	inconclusive: 20.6 µM [cytotoxic, partial curve, poor fit]
C=CCC[C@@H](Cc1ccc(F)cc1)C(=O)OC[C@H](C)NC(=O)[C@H](CC=C)CC(=O)N(CCO)Cc1ccccc1	inconclusive: 32.6 µM [rising, single point]
CCOc1ccc(C(=S)NC2CCCCC2)cc1OC	active: 16.4 µM
COc1ccc2oc(=O)cc(CN3CCOCC3)c2c1	inconclusive: 7.31 µM [rising, partial curve]
Nc1ccccc1Nc1cc(-c2cccc(Cl)c2)nn1-c1ccccc1	inconclusive: 20.6 µM [cytotoxic, single point]
O=C(COc1ccccc1F)Nc1ccc(C(=O)OCc2cc(=O)n3nc(C4CC4)sc3n2)cc1	inconclusive: 5.17 µM [rising, partial curve]
CC(=O)Nc1ccc(CN2CCN(CCc3ccccc3)C(CCO)C2)cc1 (centres undefined)	inconclusive: 16.4 µM [rising, single point]
Cc1ccc(C(=O)CCC(=O)N2CCN(C/C=C/c3ccccc3)CC2)cc1	inconclusive: 16.4 µM [cytotoxic, partial curve, poor fit]
Cc1c(NC(=O)c2nn3c(c2Br)NC(c2ccccc2)CC3C(F)(F)F)c(=O)n(-c2ccccc2)n1C (centres undefined)	active: 16.4 µM
Cn1c(N)c(C(=O)COC(=O)c2ccc([N+](=O)[O-])o2)c(=O)n(C)c1=O	inactive

Source: PubChem BioAssay AID1347076 (National Center for Advancing Translational Sciences (NCATS), 2019)
